Data published in patent US20260098866A1 (REMEGEN, published 2026).
No constants are given. Whether binding was seen depends on the method and setting. Some results given as binding are weak or reduced against the parent protein; the word gives no strength.

T1: telitacicept
T1 construct: TACI-Fc fusion protein drug; also called Tai ai; TACI-Fc fusion protein
T1 chain: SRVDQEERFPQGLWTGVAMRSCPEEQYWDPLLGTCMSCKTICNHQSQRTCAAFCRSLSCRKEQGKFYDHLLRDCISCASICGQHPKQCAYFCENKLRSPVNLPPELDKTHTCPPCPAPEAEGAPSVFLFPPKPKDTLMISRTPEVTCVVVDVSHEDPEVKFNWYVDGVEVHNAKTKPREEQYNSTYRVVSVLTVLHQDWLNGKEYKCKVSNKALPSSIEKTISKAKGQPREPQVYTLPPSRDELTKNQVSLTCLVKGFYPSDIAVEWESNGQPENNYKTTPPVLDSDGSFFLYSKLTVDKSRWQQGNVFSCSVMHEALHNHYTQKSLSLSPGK

B1: antibody 1B11D2 (antibody, mouse IgG1, kappa, V domains shown)
VH: EVQLQQSGPELVKPGASVKISCKTSGYTFTEFSMHWVQQSHGKSLEWIGGINPNHGGSSYNQKFKGKATLTVDKSSSTAYMELRSLTSEDSAVYYCARRGDYYGNLYYAMDYWGQGTSVTVSS
VL: SIVMTQTPKFLLVSVGDSITITCKASQSVSNDVVWYQQKPGQSPKLLIYYASNRYTGVPDRFTGSGYGTDFTFTITTVQAEDLAVYFCQQDYSSPWAFGGGTKLEIKR
notes: Mouse hybridoma antibody, purified from the culture supernatant of cell line 1B11D2-1; The printed heavy and light chains start with what looks like a leader peptide (MGWSW..., MKSQT...); also called 1B11D2-1 (hybridoma cell line / culture supernatant); TACI antibody (1B11D2)
B2: antibody 12C9F3 (antibody, mouse IgG1, kappa, V domains shown)
VH: EVQLQQSGPELVKPGASVKISCKTSGYTFTEYAMHWVKQSHGKSLEWIGGINPNHGGTSNNQKFKGKATLTVDKSSSTAYMDFRSLTSEDSAVYYCARWGTDPFFAYWGQGTLVTVSA
VL: DIVMTQSHKFMSTSVGDRVSITCKASQDVSTAVAWYQQKPGQSPKLLIYWASTRHTGVPDRFTGSGSGTDYTLTITSVQAEDLTLYYCHQHYAPPWTFGGGTKLEIKR
notes: Mouse hybridoma antibody, purified from the culture supernatant of cell line 12C9F3-1; The printed chains seem to include a leader peptide, but no cleavage site is stated; also called 12C9F3-1 (hybridoma cell line / culture supernatant)

Molecular target: T1, telitacicept
Test: BLI (Octet RH16)

Binder	binding
B1	binds
B2	binds
